{"source": "patent US20240158515A1", "about": "“ANTI-FGFR3 ANTIBODIES AND ANTIGEN-BINDING FRAGMENTS AND METHODS OF USE THEREOF” (Regeneron Pharmaceuticals, Inc., priority 2022, published 2024)", "type_in_all_cases": "cell-based, murine", "key": {"[1]": {"system": "BaF3 cells expressing FGFR3 S249C", "test": "BaF3 proliferation assay, FGFR3 S249C (TKI resistance study)", "conditions": "Mus musculus, 72 h, CellTiter-Glo, FIG. 12A left, read-out: IC50, growth of BaF3 cells expressing FGFR3 S249C", "method": "(§1) IL-3 dependent murine pro B cell line BaF3 cells were engineered to stably express full length human FGFR3b S249C, V557L, V557M, S249C/V557L, S249C/V557M (accession number for WT FGFR3b NP_001156685.1, amino acids M1-T808). Cells were maintained in RPMI 1640+10% FBS+P/S/G+1 ng/ml mouse IL-3+500 ug/ml Neomycin; 37° C. 5% CO2. For proliferation assays, cells were washed with IL-3-free culture media and plated at 10^5 cells/well into 96-well black wall tissue culture plates. Cells were treated with 1:3 serially diluted antibody as indicated in the presence or absence of 5 μg/ml heparin and 1 nM human FGF1. After addition of antibodies, cells were incubated at 37° C./5% CO2 for 72 h followed by the addition of an equal volume of CellTiter-Glo™ (Promega) reagent to lyse cells and detect luciferase activity. Luminescence signal was quantitated with Envision plate reader (PerkinElmer). EC50 values of the antibodies were determined using GraphPad Prism software."}, "[2]": {"system": "BaF3 cells expressing FGFR3 S249C/V557L", "test": "BaF3 proliferation assay, FGFR3 S249C/V557L", "conditions": "FIG. 12A right", "method": "as §1"}, "[3]": {"system": "BaF3 cells expressing FGFR3 S249C/V557M", "test": "BaF3 proliferation assay, FGFR3 S249C/V557M", "conditions": "FIG. 12B", "method": "as §1"}}}
{"smiles": "COc1cc(OC)cc(N(CCNC(C)C)c2ccc3ncc(-c4cnn(C)c4)nc3c2)c1", "note": "[erdafitinib]", "values": [{"measurement": "IC50", "setting": "[1]", "result": 1.2, "unit": "nM"}, {"measurement": "growth inhibition of BaF3 cells expressing FGFR3 S249C+V557L (in words)", "setting": "[2]", "result": "ineffective"}, {"measurement": "growth inhibition of BaF3 cells expressing FGFR3 S249C+V557M (in words)", "setting": "[3]", "result": "ineffective"}]}
